Measurements: US20250283871A1, “COMPOSITIONS AND METHODS FOR MODULATING THE INTERACTION BETWEEN SS18-SSX FUSION ONCOPROTEIN AND NUCLEOSOMES” (Dana-Farber Cancer Institute, Inc., priority 2020, published 2025)

B1: PPT1 (protein, UniProt P50897 28-306, looked up)
Palmitoyl-protein …: DPPAPLPLVIWHGMGDSCCNPLSMGAIKKMVEKKIPGIYVLSLEIGKTLMEDVENSFFLNVNSQVTTVCQALAKDPKLQQGYNAMGFSQGGQFLRAVAQRCPSPPMINLISVGGQHQGVFGLPRCPGESSHICDFIRKTLNAGAYSKVVQERLVQAEYWHDPIKEDVYRNHSIFLADINQERGINESYKKNLMALKKFVMVKFLNDSIVDPVDSEWFGFYRSGQAKETIPLQETSLYTQDRLGLKEMDNAGQLVFLATEGDHLQLSEEWFYAHIIPFLG
B2: TOR2A (protein, UniProt Q5JU69 27-321, looked up)
Torsin-2A: AWDLASLRCTLGAFCECDFRPDLPGLECDLAQHLAGQHLAKALVVKALKAFVRDPAPTKPLVLSLHGWTGTGKSYVSSLLAHYLFQGGLRSPRVHHFSPVLHFPHPSHIERYKKDLKSWVQGNLTACGRSLFLFDEMDKMPPGLMEVLRPFLGSSWVVYGTNYRKAIFIFISNTGGKQINQVALEAWRSRRDREEILLQELEPVISRAVLDNPHHGFSNSGIMEERLLDAVVPFLPLQRHHVRHCVLNELAQLGLEPRDEVVQAVLDSTTFFPEDEQLFSSNGCKTVASRIAFFL
B3: CDYL (protein, UniProt Q9Y232 1-598, looked up)
Chromodomain Y-like protein: MTFQASHRSAWGKSRKKNWQYEGPTQKLFLKRNNVSAPDGPSDPSISVSSEQSGAQQPPALQVERIVDKRKNKKGKTEYLVRWKGYDSEDDTWEPEQHLVNCEEYIHDFNRRHTEKQKESTLTRTNRTSPNNARKQISRSTNSNFSKTSPKALVIGKDHESKNSQLFAASQKFRKNTAPSLSSRKNMDLAKSGIKILVPKSPVKSRTAVDGFQSESPEKLDPVEQGQEDTVAPEVAAEKPVGALLGPGAERARMGSRPRIHPLVPQVPGPVTAAMATGLAVNGKGTSPFMDALTANGTTNIQTSVTGVTASKRKFIDDRRDQPFDKRLRFSVRQTESAYRYRDIVVRKQDGFTHILLSTKSSENNSLNPEVMREVQSALSTAAADDSKLVLLSAVGSVFCCGLDFIYFIRRLTDDRKRESTKMAEAIRNFVNTFIQFKKPIIVAVNGPAIGLGASILPLCDVVWANEKAWFQTPYTTFGQSPDGCSTVMFPKIMGGASANEMLLSGRKLTAQEACGKGLVSQVFWPGTFTQEVMVRIKELASCNPVVLEESKALVRCNMKMELEQANERECEVLKKIWGSAQGMDSMLKYLQRKIDEF
B4: DDX50 (protein, UniProt Q9BQ39 1-737, looked up)
ATP-dependent RNA helicase …: MPGKLLWGDIMELEAPLEESESQKKERQKSDRRKSRHHYDSDEKSETRENGVTDDLDAPKAKKSKMKEKLNGDTEEGFNRLSDEFSKSHKSRRKDLPNGDIDEYEKKSKRVSSLDTSTHKSSDNKLEETLTREQKEGAFSNFPISEETIKLLKGRGVTYLFPIQVKTFGPVYEGKDLIAQARTGTGKTFSFAIPLIERLQRNQETIKKSRSPKVLVLAPTRELANQVAKDFKDITRKLSVACFYGGTSYQSQINHIRNGIDILVGTPGRIKDHLQSGRLDLSKLRHVVLDEVDQMLDLGFAEQVEDIIHESYKTDSEDNPQTLLFSATCPQWVYKVAKKYMKSRYEQVDLVGKMTQKAATTVEHLAIQCHWSQRPAVIGDVLQVYSGSEGRAIIFCETKKNVTEMAMNPHIKQNAQCLHGDIAQSQREITLKGFREGSFKVLVATNVAARGLDIPEVDLVIQSSPPQDVESYIHRSGRTGRAGRTGICICFYQPRERGQLRYVEQKAGITFKRVGVPSTMDLVKSKSMDAIRSLASVSYAAVDFFRPSAQRLIEEKGAVDALAAALAHISGASSFEPRSLITSDKGFVTMTLESLEEIQDVSCAWKELNRKLSSNAVSQITRMCLLKGNMGVCFDVPTTESERLQAEWHDSDWILSVPAKLPEIEEYYDGNTSSNSRQRSGWSSGRSGRSGRSGGRSGGRSGRQSRQGSRSGSRQDGRRRSGNRNRSRSGGHKRSFD
B5: XPO5 (protein, UniProt Q9HAV4 2-1204, looked up)
Exportin-5: AMDQVNALCEQLVKAVTVMMDPNSTQRYRLEALKFCEEFKEKCPICVPCGLRLAEKTQVAIVRHFGLQILEHVVKFRWNGMSRLEKVYLKNSVMELIANGTLNILEEENHIKDALSRIVVEMIKREWPQHWPDMLIELDTLSKQGETQTELVMFILLRLAEDVVTFQTLPPQRRRDIQQTLTQNMERIFSFLLNTLQENVNKYQQVKTDTSQESKAQANCRVGVAALNTLAGYIDWVSMSHITAENCKLLEILCLLLNEQELQLGAAECLLIAVSRKGKLEDRKPLMVLFGDVAMHYILSAAQTADGGGLVEKHYVFLKRLCQVLCALGNQLCALLGADSDVETPSNFGKYLESFLAFTTHPSQFLRSSTQMTWGALFRHEILSRDPLLLAIIPKYLRASMTNLVKMGFPSKTDSPSCEYSRFDFDSDEDFNAFFNSSRAQQGEVMRLACRLDPKTSFQMAGEWLKYQLSTFLDAGSVNSCSAVGTGEGSLCSVFSPSFVQWEAMTLFLESVITQMFRTLNREEIPVNDGIELLQMVLNFDTKDPLILSCVLTNVSALFPFVTYRPEFLPQVFSKLFSSVTFETVEESKAPRTRAVRNVRRHACSSIIKMCRDYPQLVLPNFDMLYNHVKQLLSNELLLTQMEKCALMEALVLISNQFKNYERQKVFLEELMAPVASIWLSQDMHRVLSDVDAFIAYVGTDQKSCDPGLEDPCGLNRARMSFCVYSILGVVKRTCWPTDLEEAKAGGFVVGYTSSGNPIFRNPCTEQILKLLDNLLALIRTHNTLYAPEMLAKMAEPFTKALDMLDAEKSAILGLPQPLLELNDSPVFKTVLERMQRFFSTLYENCFHILGKAGPSMQQDFYTVEDLATQLLSSAFVNLNNIPDYRLRPMLRVFVKPLVLFCPPEHYEALVSPILGPLFTYLHMRLSQKWQVINQRSLLCGEDEAADENPESQEMLEEQLVRMLTREVMDLITVCCVSKKGADHSSAPPADGDDEEMMATEVTPSAMAELTDLGKCLMKHEDVCTALLITAFNSLAWKDTLSCQRTTSQLCWPLLKQVLSGTLLADAVTWLFTSVLKGLQMHGQHDGCMASLVHLAFQIYEALRPRYLEIRAVMEQIPEIQKDSLDQFDCKLLNPSLQKVADKRRKDQFKRLIAGCIGKPLGEQFRKEVHIKNLPSLFKKTKPMLETEVLDNDGGGLATIFEP
B6: ATP5L (protein, UniProt O75964 2-103, looked up)
ATP synthase F(0) complex …: AQFVRNLVEKTPALVNAAVTYSKPRLATFWYYAKVELVPPTPAEIPRAIQSLKKIVNSAQTGSFKQLTVKEAVLNGLVATEVLMWFYVGEIIGKRGIIGYDV
B7: MARS (protein, UniProt P56192 1-900, looked up)
Methionine--tRNA ligase, …: MRLFVSDGVPGCLPVLAAAGRARGRAEVLISTVGPEDCVVPFLTRPKVPVLQLDSGNYLFSTSAICRYFFLLSGWEQDDLTNQWLEWEATELQPALSAALYYLVVQGKKGEDVLGSVRRALTHIDHSLSRQNCPFLAGETESLADIVLWGALYPLLQDPAYLPEELSALHSWFQTLSTQEPCQRAAETVLKQQGVLALRPYLQKQPQPSPAEGRAVTNEPEEEELATLSEEEIAMAVTAWEKGLESLPPLRPQQNPVLPVAGERNVLITSALPYVNNVPHLGNIIGCVLSADVFARYSRLRQWNTLYLCGTDEYGTATETKALEEGLTPQEICDKYHIIHADIYRWFNISFDIFGRTTTPQQTKITQDIFQQLLKRGFVLQDTVEQLRCEHCARFLADRFVEGVCPFCGYEEARGDQCDKCGKLINAVELKKPQCKVCRSCPVVQSSQHLFLDLPKLEKRLEEWLGRTLPGSDWTPNAQFITRSWLRDGLKPRCITRDLKWGTPVPLEGFEDKVFYVWFDATIGYLSITANYTDQWERWWKNPEQVDLYQFMAKDNVPFHSLVFPCSALGAEDNYTLVSHLIATEYLNYEDGKFSKSRGVGVFGDMAQDTGIPADIWRFYLLYIRPEGQDSAFSWTDLLLKNNSELLNNLGNFINRAGMFVSKFFGGYVPEMVLTPDDQRLLAHVTLELQHYHQLLEKVRIRDALRSILTISRHGNQYIQVNEPWKRIKGSEADRQRAGTVTGLAVNIAALLSVMLQPYMPTVSATIQAQLQLPPPACSILLTNFLCTLPAGHQIGTVSPLFQKLENDQIESLRQRFGGGQAKTSPKPAVVETVTTAKPQQIQALMDEVTKQGNIVRELKAQKADKNEVAAEVAKLLDLKKQLAVAEGKPPEAPKGKKKK
B8: LPGAT1 (protein, UniProt Q92604 1-370, looked up)
Acyl-CoA:lysophosphatidylglyce …: MAITLEEAPWLGWLLVKALMRFAFMVVNNLVAIPSYICYVIILQPLRVLDSKRFWYIEGIMYKWLLGMVASWGWYAGYTVMEWGEDIKAVSKDEAVMLVNHQATGDVCTLMMCLQDKGLVVAQMMWLMDHIFKYTNFGIVSLVHGDFFIRQGRSYRDQQLLLLKKHLENNYRSRDRKWIVLFPEGGFLRKRRETSQAFAKKNNLPFLTNVTLPRSGATKIILNALVAQQKNGSPAGGDAKELDSKSKGLQWIIDTTIAYPKAEPIDIQTWILGYRKPTVTHVHYRIFPIKDVPLETDDLTTWLYQRFVEKEDLLSHFYETGAFPPSKGHKEAVSREMTLSNLWIFLIQSFAFLSGYMWYNIIQYFYHCLF
B9: DERL1 (protein, UniProt Q9BUN8 2-251, looked up)
Derlin-1: SDIGDWFRSIPAITRYWFAATVAVPLVGKLGLISPAYLFLWPEAFLYRFQIWRPITATFYFPVGPGTGFLYLVNLYFLYQYSTRLETGAFDGRPADYLFMLLFNWICIVITGLAMDMQLLMIPLIMSVLYVWAQLNRDMIVSFWFGTRFKACYLPWVILGFNYIIGGSVINELIGNLVGHLYFFLMFRYPMDLGGRNFLSTPQFLYRWLPSRRGGVSGFGVPPASMRRAADQNGGGGRHNWGQGFRLGDQ
B10: CHST14 (protein, UniProt Q8NCH0 1-376, looked up)
Carbohydrate sulfotransferase …: MFPRPLTPLAAPNGAEPLGRALRRAPLGRARAGLGGPPLLLPSMLMFAVIVASSGLLLMIERGILAEMKPLPLHPPGREGTAWRGKAPKPGGLSLRAGDADLQVRQDVRNRTLRAVCGQPGMPRDPWDLPVGQRRTLLRHILVSDRYRFLYCYVPKVACSNWKRVMKVLAGVLDSVDVRLKMDHRSDLVFLADLRPEEIRYRLQHYFKFLFVREPLERLLSAYRNKFGEIREYQQRYGAEIVRRYRAGAGPSPAGDDVTFPEFLRYLVDEDPERMNEHWMPVYHLCQPCAVHYDFVGSYERLEADANQVLEWVRAPPHVRFPARQAWYRPASPESLHYHLCSAPRALLQDVLPKYILDFSLFAYPLPNVTKEACQQ

Each molecule was assayed on BAF complex subunits and histone proteins (assay: Mass spectrometry proteomics of purified HA-SS18 WT and HA-SS18-SSX1 complexes (Tables 5A-5E)). Details: HA-SS18SSX1_NE_peptides (Table 5B); HA-SS18-SSX1 BAF complex purification from soluble nuclear extract, HEK-293T.
Set-up: species or system human

**Q.** For B1, which “Total (peptides)” value is on record?
**A.** 1

**Q.** And the “Unique (peptides)” value?
**A.** 1

**Q.** With B2 as the molecule, how does the “Total (peptides)” value read?
**A.** 1

**Q.** What about the “Unique (peptides)” value of the same molecule?
**A.** 1

**Q.** For B3, which “Total (peptides)” value is on record?
**A.** 1

**Q.** And the “Unique (peptides)” value?
**A.** 1

Same assay, conditions: HA-SS18SSX1_NE_peptides: protein co-purified with HA-SS18-SSX1 BAF complexes from soluble nuclear extract (NE), HEK-293T cells

**Q.** With B4 as the molecule, how does the “Total (peptides)” value read?
**A.** 1

**Q.** And the “Unique (peptides)” value?
**A.** 1

**Q.** What does the source list for B5?
**A.** Total (peptides): 1; Unique (peptides): 1

**Q.** Which “Total (peptides)” value does the source give for B6 here?
**A.** 1

**Q.** And the “Unique (peptides)” value?
**A.** 1

**Q.** How did the “Total (peptides)” value turn out when B7 was run?
**A.** 1

**Q.** What about the “Unique (peptides)” value of the same molecule?
**A.** 1

**Q.** With B8 as the molecule, how does the “Total (peptides)” value read?
**A.** 1

**Q.** What about the “Unique (peptides)” value of the same molecule?
**A.** 1

**Q.** With B9 as the molecule, how does the “Total (peptides)” value read?
**A.** 1

**Q.** And the “Unique (peptides)” value?
**A.** 1

**Q.** Which results are given for B10?
**A.** Total (peptides): 1; Unique (peptides): 1

Same assay, conditions: HA-SS18WT_CHR_peptides: protein identified in HA-SS18 WT BAF complex purification from nuclease-treated solubilized chromatin (CHR), HEK-293T

**Q.** What does the source list for B3?
**A.** Total (total peptides): 1; Unique (unique peptides): 1

Same assay, conditions: HA-SS18WT_NE_peptides: HA-SS18 WT complexes purified from nuclear extract (NE), HEK-293T; label = protein identified (Gene Symbol)

**Q.** Which “Total (peptides)” value does the source give for B7 here?
**A.** 3

**Q.** What about the “Unique (peptides)” value of the same molecule?
**A.** 2

Same assay, conditions: HA-SS18WT_NE_peptides: proteins co-purified with HA-SS18 WT from nuclear extract (NE), HEK-293T

**Q.** B6 was tested. Which “Total (peptides)” value did it give?
**A.** 1

**Q.** And the “Unique (peptides)” value?
**A.** 1

**Q.** B2 was tested. Which “Total (peptides)” value did it give?
**A.** 2

**Q.** And the “Unique (peptides)” value?
**A.** 2

**Q.** Which results are given for B9?
**A.** Total (peptides): 1; Unique (peptides): 1
